# Source: PubChem BioAssay AID555 (SRMLSC, 2006)
# This is one part of the list. Some tests of the compounds listed are not included; inactive here does not mean inactive elsewhere.
# Tested on: mevalonate kinase [Streptococcus pneumoniae D39]
# Assay: S. pneumoniae MK inhibitors, primary screen, biochemical, PK/LDH-coupled NADH absorbance (AID 555)
# Settings: purified MK, PK/LDH-coupled NADH absorbance 340 nm; measured here: pilot screen replicates; at 10 µM; stronger effect = higher value
row,SMILES,inhibition
1,O=C(OC1CN2CCC1CC2)C(CO)(c1ccccc1)c1ccccc1 (stereo unspecified),0%
